Patent US20020156245A1
No constants are given. Whether binding was seen depends on the method and setting. In cells and extracts the contact can be indirect. Some binding calls cover weakened binding; strength is not graded here. Tags and fused reporters may be left off the sequences shown.

Sequences of proteins named here, by UniProt entry; tags and fusion partners are left off. A change or cut given only in a name is not applied to a line headed by its entry.
UniProt P97698: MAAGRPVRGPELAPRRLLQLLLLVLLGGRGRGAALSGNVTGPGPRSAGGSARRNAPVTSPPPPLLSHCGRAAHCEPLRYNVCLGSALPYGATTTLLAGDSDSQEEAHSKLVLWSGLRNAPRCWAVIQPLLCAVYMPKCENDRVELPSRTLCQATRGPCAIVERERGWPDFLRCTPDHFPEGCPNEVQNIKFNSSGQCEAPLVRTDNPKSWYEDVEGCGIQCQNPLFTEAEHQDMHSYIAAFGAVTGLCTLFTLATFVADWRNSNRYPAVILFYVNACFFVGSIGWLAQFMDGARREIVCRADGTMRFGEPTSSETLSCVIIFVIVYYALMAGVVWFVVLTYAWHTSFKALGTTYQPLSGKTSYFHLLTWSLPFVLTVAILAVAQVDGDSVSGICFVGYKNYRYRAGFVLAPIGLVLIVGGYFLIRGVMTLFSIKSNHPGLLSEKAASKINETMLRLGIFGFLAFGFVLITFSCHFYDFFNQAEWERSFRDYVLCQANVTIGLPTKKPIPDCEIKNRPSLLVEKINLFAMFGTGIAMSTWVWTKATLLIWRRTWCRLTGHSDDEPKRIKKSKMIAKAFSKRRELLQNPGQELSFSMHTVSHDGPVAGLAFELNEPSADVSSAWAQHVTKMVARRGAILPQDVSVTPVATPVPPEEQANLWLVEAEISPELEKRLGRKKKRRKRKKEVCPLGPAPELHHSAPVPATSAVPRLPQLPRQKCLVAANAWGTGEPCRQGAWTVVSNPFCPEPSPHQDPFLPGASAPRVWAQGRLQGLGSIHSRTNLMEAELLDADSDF

What was measured:
[1] = target: myc-epitope tagged Smo (SEQ ID NO:15) (Rattus norvegicus (Rat)) (UniProt P97698); assay: summary of the co-immunoprecipitation in Example 1
[2] = target: myc-epitope tagged Smo (SEQ ID NO:15) (Rattus norvegicus (Rat)) (UniProt P97698); assay: co-immunoprecipitation from co-transfected 293 cells
[3] = target: myc-epitope tagged Smo (SEQ ID NO:15) (Rattus norvegicus (Rat)) (UniProt P97698); assay: co-immunoprecipitation with 9E10 anti-myc or M2 anti-FLAG, western blot
[4] = target: myc-epitope tagged Smo (SEQ ID NO:15) (Rattus norvegicus (Rat)) (UniProt P97698); assay: co-immunoprecipitation (IP anti-Flag, blot anti-Myc) from co-transfected 293 cells

Measured: binding

B1: FLAG-epitope tagged Ptch2 (receptor, not shown: small tags and cut ends)
chain: MTRSPPLRELPPSYTPPARTAAPQILAGSLKAPLWLRAYFQGLLFSLGCGIQRHCGKVLFLGLLAFGALALGLRMAIIETNLEQLWVEVGSRVSQELHYTKEKLGEEAAYTSQMLIQTARQEGENILTPEALGLHLQAALTASKVQVSLYGKSWDLNKICYKSGVPLIENGMIEWMIEKLFPCVILTPLDCFWEGAKLQGGSAYLPGRPDIQWTNLDPEQLLEELGPFASLEGFRELLDKAQVGQAYVGRPCLHPDDLHCPPSAPNHHSRQAPNVAHELSGGCHGFSHKFMHWQEELLLGGMARDPQGELLRAEALQSTFLLMSPRQLYEHFRGDYQTHDIGWSEEQASTVLQAWQRRFVQLAQEALPENASQQIHAFSSTTLDDILHAFSEVSAARVVGGYLLMLAYACVTMLRWDCAQSQGSVGLAGVLLVALAVASGLGLCALLGITFNAATTQVLPFLALGIGVDDVFLLAHAFTEALPGTPLQERMGECLQRTGTSVVLTSINNMAAFLMAALVPIPALRAFSLQAAIVVGCTFVAVMLVFPAILSLDLRRRHCQRLDVLCCFSSPCSAQVIQILPQELGDGTVPVGIAHLTATVQAFTHCEASSQHVVTILPPQAHLVPPPSDPLGSELFSPGGSTRDLLGQEEETRQKAACKSLPCARWNLAHFARYQFAPLLLQSHAKAIVLVLFGALLGLSLYGATLVQDGLALTDVVPRGTKEHAFLSAQLRYFSLYEVALVTQGGFDYAHSQRALFDLHQRFSSLKAVLPPPATQAPRTWLHYYRNWLQGIQAAFDQDWASGRITRHSYRNGSEDGALAYKLLIQTGDAQEPLDFSQLTTRKLVDREGLIPPELFYMGLTVWVSSDPLGLAASQANFYPPPPEWLHDKYDTTGENLRIPPAQPLEFAQFPFLLRGLQKTADFVEAIEGARAACAEAGQAGVHAYPSGSPFLFWEQYLGLRRCFLLAVCILLVCTFLVCALLLLNPWTAGLIVLVLAMMTVELFGIMGFLGIKLSAIPVVILVASVGIGVEFTVHVALGFLTTQGSRNLRAAHALEHTFAPVTDGAISTLLGLLMLAGSHFDFIVRYFFAALTVLTLLGLLHGLVLLPVLLSILGPPPEVIQMYKESPEILSPPAPQGGGLRWGASSSLPQSFARVTTSMTVAIHPPPLPGAYIHPAPDEPPWSPAATSSGNLSSRGPGPATG
binds: all assays above
